# Assay results as given in the supplement of paper PMC5355238.
# “And” between values parts separate entries of the source, which are not always exact repeats. Equal values may be shown once. Where a name gives a salt, the structure may show the parent alone. Some of the results follow. Repeats are few or missing, and single values can be far off.
# Tested on: Reh
# Assay: S-phase gammaH2AX median, Z-score vs plate median (drug alone); higher = more S-phase DNA damage
# Settings: MK1775 concentration 0 nM; 10 µM; 4 h
row,Structure (SMILES),S-phase gammaH2AX median (Z-score)
1,NCCCCC(=O)O [5-Aminovaleric acid hydrochloride],-0.0699
2,OCCN1CCN(CCCN2c3ccccc3Sc3ccc(C(F)(F)F)cc32)CC1 [Fluphenazine dihydrochloride],-0.236
3,"CCCn1c(=O)c2c(ncn2C)n(CCC)c1=O [1,3-Dipropyl-7-methylxanthine]",-0.0945
4,C[C@H]1C[C@H]2[C@@H]3CCC4=CC(=O)C=C[C@]4(C)[C@@]3(F)[C@@H](O)C[C@]2(C)[C@@]1(O)C(=O)CO [Betamethasone],-0.0563
5,CC1=Nc2ccc(Cl)cc2S(=O)(=O)N1 [Diazoxide],0.0472
6,Cc1ccc(Cl)c(Nc2ccccc2C(=O)O)c1Cl [Meclofenamic acid sodium],-0.551
7,COC(=O)C1=C(C)NC(C)=C(C(=O)OCCCN2CCC(c3ccccc3)(c3ccccc3)CC2)[C@H]1c1cccc([N+](=O)[O-])c1 [S-(+)-Niguldipine hydrochloride],-0.00889
8,"CN(C)CCOc1ccc(/C(=C(/CCCl)c2ccccc2)c2ccccc2)cc1 [Toremifene Citrate (Fareston, Acapodene)]",0.000387
9,CCn1nc(C(=O)O)c(=O)c2cc3c(cc21)OCO3 [Cinoxacin],0.0291
10,CNC(=O)c1cc(COc2nnc(Nc3ccc(Cl)cc3)c3ccoc23)ccn1 [Telatinib (BAY 57-9352)],-0.0808
11,CN1CCN(c2nc3cc(C(F)(F)F)ccc3n3cccc23)CC1,0.0136
12,COc1cc2nccc(Oc3ccc(NC(=O)C4(C(=O)Nc5ccc(F)cc5)CC4)cc3)c2cc1OC [XL-184 free base (Cabozantinib)],-0.0862
13,C[C@@H]1C[C@H]2[C@@H]3CCC4=CC(=O)C=C[C@]4(C)[C@@]3(F)[C@@H](O)C[C@]2(C)[C@@]1(O)C(=O)CO [Dexamethasone],-0.0476
14,N=C(N)SCCc1c[nH]cn1 [Imetit dihydrobromide],0.0882
15,Cc1cnc(NC(=O)C2=C(O)c3ccccc3S(=O)(=O)N2C)s1 [Meloxicam sodium],-0.0639
16,O=C(O)CCCc1ccccc1 [4-Phenylbutyrate],0.053
17,COc1cc(NS(C)(=O)=O)ccc1Nc1c2ccccc2nc2ccccc12 [Amsacrine hydrochloride],10.8
18,FC(F)c1nc2ccccc2n1-c1nc(N2CCOCC2)nc(N2CCOCC2)n1,-0.105
19,CN(C)c1ccc(/C=C2/C(=O)Nc3ccccc32)cc1,0.24
20,CN1CCN(CCOc2cc(OC3CCOCC3)c3c(Nc4c(Cl)ccc5c4OCO5)ncnc3c2)CC1 [Saracatinib (AZD0530)],0.0599
21,Nc1ccc(S(=O)(=O)Nc2ccnn2-c2ccccc2)cc1 [Sulfaphenazole],0.1
22,CC(C)(C)[C@]1(O)CCN2C[C@H]3c4ccccc4CCc4cccc(c43)[C@@H]2C1 [(+)-Butaclamol hydrochloride],0.854
23,Nc1nc2[nH]c(=O)cnc2c(=O)[nH]1 [Isoxanthopterin],-0.236
24,Nc1ncnc2c1nc(Sc1ccc(Cl)cc1)n2C1OC2COP(=O)(O)O[C@@H]2[C@@H]1O (stereo partly specified) [8-(4-Chlorophenylthio)-cAMP sodium],-0.0155
25,O=C(O)C1=CCCNC1 [Guvacine hydrochloride],0.302
26,COc1ccccc1N1CCN(CCCCNS(=O)(=O)c2cccc3c(N(C)C)cccc23)CC1 [Cortexolone maleate],0.0868

row,Structure (SMILES),S-phase gammaH2AX median (Z-score)
1,NCCNC(=O)c1ncsc1-c1cccc(F)c1 [Ro 41-1049 hydrochloride],-0.327
2,CCn1ccnc1CC1COc2ccccc2O1 (stereo unspecified) [Imiloxan hydrochloride],0.107
3,O=C1CC2(CCCC2)CC(=O)N1CCCCN1CCN(c2ncccn2)CC1 [Buspirone hydrochloride],-0.00194
4,O=C(NOC[C@H](O)CO)c1ccc(F)c(F)c1Nc1ccc(I)cc1F,0.0445
5,Cc1cc(C)c(/C=C2\C(=O)Nc3ccccc32)[nH]1,-0.16
6,O=C(Nc1ncc([N+](=O)[O-])s1)c1ccc([N+](=O)[O-])c(Cl)c1,0.13
7,"N[C@H](C(=O)O)c1cc(O)cc(O)c1 [(S)-3,5-Dihydroxyphenylglycine]",-0.00945
8,Cc1cccc(C#Cc2ccccc2)n1 [6-Methyl-2-(phenylethynyl)pyridine hydrochloride],0.166
9,C=CCN1CCc2c(cc(O)c(O)c2Br)[C@@H](c2ccccc2)C1 [R(+)-6-Bromo-APB hydrobromide],0.0563
10,CN(C)c1nc(N(C)C)nc(N(C)C)n1 [Altretamine (Hexalen)],0.13
11,CN(C)c1nc(N(C)C)nc(N(C)C)n1 [Altretamine],0.0641
12,Nc1nc2c(nc(Br)n2C2OC3COP(=O)(O)O[C@@H]3C2O)c(=O)[nH]1 (stereo partly specified) [8-Bromo-cGMP sodium],-0.0194
13,CC(=O)O[C@]1(C(C)=O)CC[C@H]2[C@@H]3C[C@H](C)C4=CC(=O)CC[C@]4(C)[C@H]3CC[C@@]21C [Medroxyprogesterone acetate],-0.00193
14,COc1ccccc1OCC(O)CN1CCN(CC(=O)Nc2c(C)cccc2C)CC1 (stereo unspecified) [Ranolazine dihydrochloride],-0.0733
15,COc1ccccc1OCC(O)CN1CCN(CC(=O)Nc2c(C)cccc2C)CC1 (stereo unspecified) [Ranolazine (Ranexa)],-0.0104
16,O=[N+]([O-])c1cccc2cn[nH]c12 [7-Nitroindazole],0
17,CC(C)[C@@H]1NC(=O)[C@H](CCCCN)NC(=O)[C@@H](Cc2c[nH]c3ccccc23)NC(=O)[C@H](Cc2ccc(O)cc2)NC(=O)[C@H](C)N(C)C(=O)[C@H](Cc2ccccc2)NC1=O [Seglitide],0.147
18,COc1cc([C@@H]2c3cc4c(cc3[C@@H](O[C@@H]3O[C@@H]5CO[C@@H](C)O[C@H]5[C@H](O)[C@H]3O)[C@H]3COC(=O)[C@H]23)OCO4)cc(OC)c1O [Etoposide],11.7
19,CCCNCC(O)COc1ccccc1C(=O)CCc1ccccc1 (stereo unspecified) [Propafenone hydrochloride],-0.0426
20,CCCCCCCCCCCCCCCCCC(=O)OC(CC(=O)O)C[N+](C)(C)C (racemic) [DL-Stearoylcarnitine chloride],-0.214
21,COc1ccc(C2CNC(=O)C2)cc1OC1CCCC1 (stereo unspecified) [Rolipram],0.0189
22,CC(/C=C/c1cccc(Oc2ccc(F)cc2)c1)N(O)C(N)=O (stereo unspecified),-0.0641
23,O=c1c(O)c(-c2ccc(O)cc2O)oc2cc(O)cc(O)c12 [Morin],-0.0733
24,CC(=O)Nc1nc(C)c(-c2ccc(Cl)c(S(=O)(=O)NCCO)c2)s1,-0.0785
25,Cc1ccc([N+](=O)[O-])cc1S(=O)(=O)N(C)C,-0.103
26,CC(C)C[C@H](NP(=O)(O)O[C@H]1O[C@H](C)[C@@H](O)[C@H](O)[C@@H]1O)C(=O)N[C@@H](Cc1c[nH]c2ccccc12)C(=O)O [Phosphoramidon disodium],-0.0378

row,Structure (SMILES),S-phase gammaH2AX median (Z-score)
1,Oc1ccc([C@@H]2CNCc3sccc32)cc1O,-0.0334
2,COc1ccc(CCN(C)CCCC(C#N)(c2cc(OC)c(OC)c(OC)c2)C(C)C)cc1OC (stereo unspecified) [(?)-Methoxyverapamil hydrochloride],-0.0639
3,CC[C@H](C)C(=O)O[C@H]1CCC=C2C=C[C@H](C)[C@H](CC[C@@H]3C[C@@H](O)CC(=O)O3)[C@H]21 [Mevastatin],0.0284
4,NNc1nncc2ccccc12 [Hydralazine hydrochloride],0.0346
5,C=CC(=O)Nc1cccc(Oc2nc(Nc3ccc(N4CCN(C)CC4)cc3OC)ncc2Cl)c1,-0.132
6,O=C(/C=C/c1ccc(O)c(O)c1)OCCc1ccccc1 [Caffeic acid phenethyl ester],0.0524
7,CCn1cc(C(=O)O)c(=O)c2ccc(Cc3ccccc3)nc21 [Amfonelic acid],-0.18
8,Cc1c(C)c2c(c(C)c1O)CCC(C)(CN1CCN(c3cc(N4CCCC4)nc(N4CCCC4)n3)CC1)O2 (stereo unspecified),0
9,CN1CCN(CCCN2c3ccccc3Sc3ccc(Cl)cc32)CC1 [Prochlorperazine dimaleate],-0.156
10,CN(C)C[C@@H]1CCn2cc(c3ccccc32)C2=C(C(=O)NC2=O)c2cn(c3ccccc23)CCO1,0.00657
11,CC(=O)[C@]1(O)Cc2c(O)c3c(c(O)c2[C@@H](O[C@H]2C[C@H](N)[C@H](O)[C@H](C)O2)C1)C(=O)c1ccccc1C3=O [Idarubicin HCl],-0.195
12,CC(=O)[C@]1(O)Cc2c(O)c3c(c(O)c2[C@@H](O[C@H]2C[C@H](N)[C@H](O)[C@H](C)O2)C1)C(=O)c1ccccc1C3=O [Idarubicin],8.98
13,CS(=O)(=O)N1CCc2c(-c3cnc(N)nc3)nc(N3CCOCC3)nc21,-0.125
14,Cn1ccc2cc(NC(=O)Nc3cccnc3)ccc21,0.00388
15,COCC[n+]1c2c(n(Cc3cnccn3)c1C)C(=O)c1ccccc1C2=O,2.71
16,Nc1ncnc2c1c(-c1ccc(Oc3ccccc3)cc1)cn2C1CCCC1,-0.142
17,C[C@@H]1CCN(C(=O)CC#N)C[C@@H]1N(C)c1ncnc2[nH]ccc12,0.194 and 0.0669
18,COc1cc2c(cc1C(F)(F)F)N(C(=O)Nc1cc(F)cc(-c3cccnc3)c1)CC2,-0.0504
19,CCC(C)N(C)C(=O)c1cc2ccccc2c(-c2ccccc2Cl)n1 (stereo unspecified),-0.0194
20,Nc1nc2ccc(Cl)cc2c2nc(-c3ccco3)nn12,0.28
21,"NCCCCCCCCCCN [1,10-Diaminodecane]",0.0409
22,OCCN1CCN(CCCN2c3ccccc3Sc3ccc(Cl)cc32)CC1 [Perphenazine],-0.21
23,COC1=CC(c2cc3ccccc3[nH]2)=N/C1=C\c1[nH]c(C)cc1C [Obatoclax mesylate (GX15-070)],1.2
24,"O=c1oc(Cl)c(Cl)c2ccccc12 [3,4-Dichloroisocoumarin]",-0.0598
